The assay has as its system P388 leukemia ip, CD2F1 mice, survival T/C. Description: NCI In Vivo Anticancer Drug Screen. Data for tumor model P388 Leukemia (intraperitoneal) in CD2F1 (CDF1) mice. Particulars: T/C endpoint: median survival time, higher T/C = longer survival.

The list shows only some results of the screen, not a fair sample: it covers a few groups of compounds. Not every dose and run of a compound is shown. T/C: endpoint of the treated group in % of that of the vehicle group. For survival time, the PubChem record calls one and a half times the control and up active, and a quarter to a half above the control has no call in these data; cut-offs in other NCI protocols can differ. Some T/C values are marked as having no survivor count here; that says nothing about deaths at the dose. Schedule codes are those of the source, read here as Q, the interval in days (D) or hours (H), X, the number of doses. Some entries were tested several times; the values are given in rising order. Some schedules carry Z or #; the key to these is not given.

As to `S=P(Cl)(Cl)Cl`, the T/C by setting is: (dose: 12.5 mg/kg/injection, schedule: Q01DX009 (ip), vehicle: saline) 100 % of control [survivor count not shown]; (dose: 25.0 mg/kg/injection, schedule: Q01DX009 (ip), vehicle: saline) 100 % of control [survivor count not shown]; (dose: 50.0 mg/kg/injection, schedule: Q01DX009 (ip), vehicle: saline) 90 % of control [survivor count not shown].
Turning to `O=C(O)c1ccccc1N(CCCl)CCCl`, the T/C by setting is: (dose: 25.0 mg/kg/injection, schedule: Q04DX003 (ip), vehicle: Klucel (hydroxypropylcellulose) (HPC)) 130 % of control [survivor count not shown]; (dose: 50.0 mg/kg/injection, schedule: Q04DX003 (ip), vehicle: Klucel (hydroxypropylcellulose) (HPC)) 196 % of control [survivor count not shown]; (dose: 100.0 mg/kg/injection, schedule: Q04DX003 (ip), vehicle: Klucel (hydroxypropylcellulose) (HPC)) 254 % of control [survivor count not shown]; (dose: 200.0 mg/kg/injection, schedule: Q04DX003 (ip), vehicle: Klucel (hydroxypropylcellulose) (HPC)) 126 % of control [survivor count not shown].
`Cc1cc(C)c2nc(CN(CCCl)CCCl)[nH]c2c1`: the T/C reads like this: (dose: 12.5 mg/kg/injection, schedule: Q01DX009 (ip), vehicle: saline with Tween-80) 154 % of control [survivor count not shown]; (dose: 25.0 mg/kg/injection, schedule: Q01DX009 (ip), vehicle: saline with Tween-80) 154 % of control [survivor count not shown]; (dose: 33.0 mg/kg/injection, schedule: Q04DX003 (ip), vehicle: saline with Tween-80) 177 % of control [survivor count not shown]; (dose: 50.0 mg/kg/injection, schedule: Q01DX009 (ip), vehicle: saline with Tween-80) 113 % of control [survivor count not shown]; (dose: 50.0 mg/kg/injection, schedule: Q04DX003 (ip), vehicle: saline with Tween-80) 163 [survivor count not shown] and 195 % of control [survivor count not shown].
For the compound `O=CCCCc1ccc(N(CCCl)CCCl)cc1`, the T/C was 95 % of control [survivor count not shown] (dose: 2.25 mg/kg/injection, schedule: Q#A X018 (ip), vehicle: other); 190 % of control [survivor count not shown] (dose: 4.5 mg/kg/injection, schedule: Q#A X018 (ip), vehicle: other); 190 % of control [survivor count not shown] (dose: 9.0 mg/kg/injection, schedule: Q#A X018 (ip), vehicle: other); 154 % of control [survivor count not shown] (dose: 18.0 mg/kg/injection, schedule: Q#A X018 (ip), vehicle: other).
For `Cc1ccc2nc(CN(CCCl)CCCl)[nH]c2c1`, the T/C was 136 % of control [survivor count not shown] (dose: 4.12 mg/kg/injection, schedule: Q01DX009 (ip), vehicle: saline sonified); 145 % of control [survivor count not shown] (dose: 4.4 mg/kg/injection, schedule: Q01DX009 (ip), vehicle: saline); 136 % of control [survivor count not shown] (dose: 5.0 mg/kg/injection, schedule: Q01DX009 (ip), vehicle: saline); 145 [survivor count not shown] and 172 % of control [survivor count not shown] (dose: 6.25 mg/kg/injection, schedule: Q01DX009 (ip), vehicle: saline sonified); 135 % of control [survivor count not shown] (dose: 6.6 mg/kg/injection, schedule: Q01DX009 (ip), vehicle: saline); 95 % of control [survivor count not shown] (dose: 8.3 mg/kg/injection, schedule: Q04DX003 (ip), vehicle: saline). Also, the T/C is 168 % of control [survivor count not shown] (dose: 9.4 mg/kg/injection, schedule: Q01DX009 (ip), vehicle: saline sonified); 170 [survivor count not shown] and 172 % of control [survivor count not shown] (dose: 10.0 mg/kg/injection, schedule: Q01DX009 (ip), vehicle: saline); 136 % of control [survivor count not shown] (dose: 11.0 mg/kg/injection, schedule: Q01DX001 (ip), vehicle: saline); 127 % of control [survivor count not shown] (dose: 12.5 mg/kg/injection, schedule: Q01DX009 (ip), vehicle: saline sonified); 104 % of control [survivor count not shown] (dose: 12.5 mg/kg/injection, schedule: Q04DX003 (ip), vehicle: saline); 130 % of control [survivor count not shown] (dose: 15.0 mg/kg/injection, schedule: Q01DX009 (ip), vehicle: saline). Besides, the T/C by setting is: (dose: 16.5 mg/kg/injection, schedule: Q01DX001 (ip), vehicle: saline) 136 % of control [survivor count not shown]; (dose: 18.75 mg/kg/injection, schedule: Q04DX003 (ip), vehicle: saline) 116 % of control [survivor count not shown]; (dose: 20.0 mg/kg/injection, schedule: Q01DX009 (ip), vehicle: saline) 190 % of control [survivor count not shown]; (dose: 25.0 mg/kg/injection, schedule: Q01DX001 (ip), vehicle: saline) 136 % of control [survivor count not shown]; (dose: 25.0 mg/kg/injection, schedule: Q04DX003 (ip), vehicle: saline with Tween-80) 100 % of control [survivor count not shown].

The record behind these values is PubChem BioAssay AID330 (DTP/NCI, 2004).
